Values from PubChem BioAssay AID1259308 (NCATS, 2017).
Screen: 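Candidate targets for better recombinant protein yield in mammalian cells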 (primary screen). Cell system: human HEK293 embryonic kidney cells stably expressing firefly luciferase (HEK-CMV-Luc2-Hygro). Reagents: single siRNA against human genes, 0.8 pmol siRNA per well. Duration: 72 h. Measured: 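Reporter luminescence and viable-cell signal on separate replicate plates, given as percent of non-targeting control and median/MAD z-scores, plus per-cell luciferase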. Scale: total luciferase, z-score and total luciferase, % of control: higher = more reporter protein produced. Rule for the call: 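Active when the median/MAD z-score for overall luciferase is greater than 3; a gene was taken forward for validation with new siRNAs if at least two of its three siRNAs passed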. Meaning of the calls: active = raised luciferase; inactive = no rise.
The whole screen tested about 59,000 reagents; shown is a random part of them. Over the whole deposit, about 1,510 (2.6%) got an active call. 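Calls use total luciferase alone and ignore viability, so some active siRNAs may act by altering cell number.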 The numbers tell different reagents against one gene apart. Not all columns of the deposit are shown.

With knock-down of ALDH4A1 (GeneID 8659) #1, the screen gave total luciferase, z-score -0.618; total luciferase, % of control 69.6; inactive.
Against ALDH4A1 (GeneID 8659) #2 the deposit lists total luciferase, z-score -2.03; total luciferase, % of control 41.4; inactive.
For ALDH4A1 (GeneID 8659) #3, the values are total luciferase, z-score 0.67; total luciferase, % of control 95.2; inactive.
Silencing of CSF2RB (GeneID 1439) #1 resulted in: total luciferase, z-score 2.89; total luciferase, % of control 139; inactive.
CSF2RB (GeneID 1439) #2 scored total luciferase, z-score 0.376; total luciferase, % of control 89.4; inactive.
CSF2RB (GeneID 1439) #3 showed total luciferase, z-score 0.254; total luciferase, % of control 86.9; inactive.
For ERF (GeneID 2077) #1, the values are total luciferase, z-score -0.581; total luciferase, % of control 70.3; inactive.
Against ERF (GeneID 2077) #2, the entry reads total luciferase, z-score -1.17; total luciferase, % of control 58.5; inactive.
For ERF (GeneID 2077) #3 the deposit lists total luciferase, z-score 0.773; total luciferase, % of control 97.3; inactive.
After knock-down of MGAT1 (GeneID 4245) #1, the screen gave total luciferase, z-score 0.137; total luciferase, % of control 84.6; inactive.
MGAT1 (GeneID 4245) #2 scored total luciferase, z-score -2; total luciferase, % of control 42; inactive.
MGAT1 (GeneID 4245) #3 gave total luciferase, z-score -1.87; total luciferase, % of control 44.6; inactive.
With knock-down of HSPA4L (GeneID 22824) #1 the results were total luciferase, z-score -0.424; total luciferase, % of control 73.5; inactive.
Silencing of HSPA4L (GeneID 22824) #2 came out at: total luciferase, z-score 0.379; total luciferase, % of control 89.4; inactive.
For HSPA4L (GeneID 22824) #3, the values are total luciferase, z-score 0.505; total luciferase, % of control 91.9; inactive.

Reformatted: results already given.
gene knocked down	reagent no.	total luciferase, z-score	total luciferase, % of control	outcome
ERF (GeneID 2077)	3	0.773	97.3	inactive
MGAT1 (GeneID 4245)	1	0.137	84.6	inactive
MGAT1 (GeneID 4245)	2	-2	42	inactive
MGAT1 (GeneID 4245)	3	-1.87	44.6	inactive
HSPA4L (GeneID 22824)	1	-0.424	73.5	inactive

Further reagents follow.
For CRAMP1 (GeneID 57585) #1, the entry reads total luciferase, z-score 2.32; total luciferase, % of control 128; inactive.
Depletion of CRAMP1 (GeneID 57585) #2 came out at: total luciferase, z-score -0.426; total luciferase, % of control 73.4; inactive.
Against CRAMP1 (GeneID 57585) #3, the values are total luciferase, z-score -1.14; total luciferase, % of control 59.2; inactive.
Depletion of CYLD (GeneID 1540) #1 came out at: total luciferase, z-score 1.84; total luciferase, % of control 118; inactive.
For CYLD (GeneID 1540) #2, the entry reads total luciferase, z-score 1.82; total luciferase, % of control 118; inactive.
For CYLD (GeneID 1540) #3 the deposit lists total luciferase, z-score 2.29; total luciferase, % of control 127; inactive.
After knock-down of INPP5A (GeneID 3632) #1, the screen gave total luciferase, z-score 0.189; total luciferase, % of control 85.7; inactive.
Against INPP5A (GeneID 3632) #2 the deposit lists total luciferase, z-score -0.611; total luciferase, % of control 69.7; inactive.
Silencing of INPP5A (GeneID 3632) #3 came out at: total luciferase, z-score -0.382; total luciferase, % of control 74.3; inactive.
RNF39 (GeneID 80352) #1 showed total luciferase, z-score 0.234; total luciferase, % of control 86.5; inactive.
Knock-down of RNF39 (GeneID 80352) #2 gave: total luciferase, z-score 3.51; total luciferase, % of control 152; active.
Against RNF39 (GeneID 80352) #3, the entry reads total luciferase, z-score 1.34; total luciferase, % of control 108; inactive.
PAWR (GeneID 5074) #1 gave total luciferase, z-score 1.91; total luciferase, % of control 120; inactive.
Depletion of PAWR (GeneID 5074) #2 resulted in: total luciferase, z-score 0.75; total luciferase, % of control 96.8; inactive.
For PAWR (GeneID 5074) #3, the entry reads total luciferase, z-score -0.412; total luciferase, % of control 73.7; inactive.
Silencing of SLC2A8 (GeneID 29988) #1 resulted in: total luciferase, z-score -0.204; total luciferase, % of control 77.8; inactive.
SLC2A8 (GeneID 29988) #2 showed total luciferase, z-score 1.16; total luciferase, % of control 105; inactive.
Knock-down of SLC2A8 (GeneID 29988) #3 resulted in: total luciferase, z-score -1.69; total luciferase, % of control 48.2; inactive.
